Measured values reported in paper PMC2894021, “Transcriptional control by two leucine-responsive regulatory proteins in Halobacterium salinarum R1” (BMC Molecular Biology, 2010).

Biological target: T1, LrpA1 (Halobacterium salinarum R1) (UniProt B0R4X4)
T1 sequence (looked up): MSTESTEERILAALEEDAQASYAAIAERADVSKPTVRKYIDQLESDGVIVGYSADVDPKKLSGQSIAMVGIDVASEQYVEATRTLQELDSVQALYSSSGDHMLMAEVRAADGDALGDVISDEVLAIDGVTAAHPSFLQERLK
Assay: DNA-affinity chromatography (pull-down), SDS-PAGE densitometry
Details: no amino acid (aspartate experiment); CFE buffer: 3 M KCl, 1 M NaCl, 5 mM MgCl2, 10 mM HEPES pH 7.1; room temperature, 4 h; 2 nmol LrpA1, 61 pmol biotinylated DNA; elution with 1% SDS; recombinant protein; residues 1-142; protein details: C-terminal His6 (pET26b, NdeI/XhoI); label: biotin (reverse primer), on streptavidin sepharose; probe letters rebuilt from the primers and the genome

“ATCGCGCTTGAACGTCTGCATACGTCCGCTACGCACCAGGCGCGCAAAACTTCAGGGGGTTCGGGACCCGCGGGTTGTGCCGTGATAGCACACGCGTCCCGCAGGAACGATTATGAGGGATGGCCGCGATCCTGCTGGCATGCCTTCGGAGCGCGCGGCTGCGGTCACGCCGTTCGCCGCGATGGATGTCCTCGAACGCGCCGCCGAC (double strand) [aspB3-Pincl]” showed a binding signal (% of aspB3-Pincl + 5 mM Asp) of 34.

For at least one entry, the source does not settle the construct or the ends of the probe. Whether high values mean tight binding is not given here for every scale. Protein sequences can lack the tags named with them.
